The assay concerns the target M^Pro (Severe acute respiratory syndrome coronavirus 2, UniProt P0DTD1). The assay can be described thus: biochemical. Conditions: for Hill Slope: Hill coefficient of IC50 curve, four-parameter fit.

The values that follow come from patent publication US11806332B2, “Compositions and methods for inhibition of SARS-CoV-2 viral infections” (priority 2020, dated 2023).

Like-named read-outs stand apart in the source and are kept apart here.

As a reminder, the IC50 is the concentration at which inhibition is half-maximal. Take `CC(C)(C)c1ccc(C(=O)CCCN2CCC(OC(c3ccccc3)c3ccccc3)CC2)cc1` [Ebastine]: the IC50 is under 100 µM and the “Hill Slope” value amounted to 1.5 ± 0.2. The IC50 (read-out: IC50) came out at 57 ± 12 µM.

On to `Clc1ccc(CO/N=C(\Cn2ccnc2)c2ccc(Cl)cc2Cl)c(Cl)c1` [Oxiconazole], for which the IC50 is under 100 µM and the “Hill Slope” value is reported as 3.8 ± 0.4. For the setting “read-out: IC50”, the IC50 amounted to 99 ± 6 µM.
